Some entries share one result that the patent states for a list of compounds.
Key:
Format in all cases: in vivo
[1] = test system: Aphis gossypii; assay: Pesticidal effect against Aphis gossypii (cucumber leaf disk); settings: first instar larvae, 3 days
[2] = test system: Tetranychus cinnabarinus; assay: Miticidal effect against Tetranychus cinnabarinus (eggs on kidney bean leaf pieces); settings: dipping treatment of 100 ppm; 6 days
[3] = test system: adult of Tetranychus uruticae (susceptible strain); assay: Miticidal effect against adult of Tetranychus uruticae (susceptible strain); settings: foliage treatment of 10 ppm, adults, 4 days
[4] = test system: egg of Tetranychus uruticae (susceptible strain); assay: Ovicidal effect against egg of Tetranychus uruticae (susceptible strain); settings: dipping treatment of 10 ppm, eggs, 7 days
Protocol: <Miticidal Effect Against Two-Spotted Spider Mite (Susceptible Strain)>
(§1) A leaf disk having a diameter of 2.0 cm was cut out from a kidney bean grown in a pot. The leaf disk was inoculated with seven female adult of Tetranychus uruticae, followed by laying in a thermostatic chamber (25° C.). After the elapse of 24 hr, female adults were removed from the leaf disk. The foliage was treated with a chemical solution adjusted to a 50% aqueous acetone solution (0.05% Tween 20 added) containing a compound of the present invention at a predetermined concentration. The foliage was then air-dried and was allowed to stand in a thermostatic chamber (light period 16 hr-dark period 8 hr) (25° C.). Seven days after the chemical solution treatment, the number of remaining eggs and the number of dead mites were counted, and the ovicidal/miticidal rate was calculated by the following equation.
(§2) Ovicidal/miticidal rate (%)={(number of remaining eggs+number of dead mites)/(number of remaining eggs+number of dead mites+number of survived insects)}×100

[5] = test system: adult of drug-resistant Tetranychus uruticae; assay: Miticidal effect against adult of drug-resistant Tetranychus uruticae; settings: foliage treatment of 10 ppm; adults, drug-resistant strain; 4 days
[6] = test system: adult of Tetranychus kanzawai; assay: Miticidal effect against adult of Tetranychus kanzawai; settings: foliage treatment of 2.5 ppm; adults; 4 days
[7] = test system: egg of Tetranychus kanzawai; assay: Ovicidal effect against egg of Tetranychus kanzawai; settings: foliage treatment of 2.5 ppm; eggs; 7 days
[8] = test system: adults of Panonychus citri harvested in Aichi Prefecture; assay: Miticidal effect against adults of Panonychus citri harvested in Aichi Prefecture; settings: foliage treatment of 10 ppm, Aichi strain, 4 days
[9] = test system: egg of Panonychus citri harvested in Aichi Prefecture; assay: Ovicidal effect against egg of Panonychus citri harvested in Aichi Prefecture; settings: foliage treatment of 10 ppm; eggs, Aichi strain; 11 days
[10] = test system: Trialeurodes vaporariorum; assay: Pesticidal effect against Trialeurodes vaporariorum (cucumber leaf disk with eggs); settings: 14 days
[11] = test system: egg of drug-resistant Tetranychus uruticae; assay: Ovicidal effect against egg of drug-resistant Tetranychus uruticae; settings: foliage treatment of 10 ppm; eggs, drug-resistant strain; 7 days
Protocol: <Miticidal Effect Against Two-Spotted Spider Mite (Drug-Resistant Strain)>
as §1, with “adult of drug-resistant Tetranychus uruticae,” for “adult of Tetranychus uruticae,”
as §2

[12] = test system: Panonychus citri harvested in Saga Prefecture; assay: Ovicidal effect against Panonychus citri harvested in Saga Prefecture; settings: eggs, Saga strain, 11 days

CCCCCC1OC(=O)C(CCC)N(C)C(=O)C(CCCCC)OC(=O)C(CC(C)C)N(C)C(=O)C(CCCCC)OC(=O)C(CC(C)C)N(C)C(=O)C(CCCCC)OC(=O)C(CCC)N(C)C1=O (stereo not drawn) [Compound 53]
not less than 80%: death rate ([1]; foliage treatment of 20 ppm) | death rate ([1]; spreading treatment of 5 ppm) | ovicidal/miticidal rate [2] | miticidal rate [3] | ovicidal/miticidal rate [4] | miticidal rate [5] | death rate [6] | ovicidal/miticidal rate [7] | death rate [8] | ovicidal/miticidal rate [9]

CCCCCC1OC(=O)C(CCC)N(C)C(=O)C(CCCCC)OC(=O)C(CCC)N(C)C(=O)C(CCCCC)OC(=O)C(CC(C)C)N(C)C(=O)C(CCCCC)OC(=O)C(CCC)N(C)C1=O (stereo not drawn) [Compound 55]
not less than 80%: death rate ([1]; foliage treatment of 20 ppm) | death rate ([10]; foliage treatment of 10 ppm) | ovicidal/miticidal rate [4] | miticidal rate [5] | ovicidal/miticidal rate [11] | death rate [6] | ovicidal/miticidal rate [7] | death rate [8] | ovicidal/miticidal rate [9] | ovicidal/miticidal rate ([12]; foliage treatment of 2.5 ppm)

CCCCCC1OC(=O)C(CCC)N(C)C(=O)C(CCCCC)OC(=O)C(CCC)N(C)C(=O)C(CCCCC)OC(=O)C(CC(C)(C)C)N(C)C(=O)C(CCCCC)OC(=O)C(CCC)N(C)C1=O (stereo not drawn) [Compound 68]
not less than 80%: death rate ([1]; foliage treatment of 20 ppm) | death rate ([10]; spreading treatment of 100 ppm) | miticidal rate [3] | ovicidal/miticidal rate [4] | death rate [6] | ovicidal/miticidal rate [7] | ovicidal/miticidal rate ([12]; foliage treatment of 12.5 ppm)

Reference: patent US20170215422A1, “NOVEL CYCLIC DEPSIPEPTIDE DERIVATIVES AND HARMFUL ORGANISM CONTROL AGENTS COMPRISING THE SAME” (priority 2012, published 2017)
